Measurements reported in PubChem BioAssay AID1224828 (NIAID, 2016)

Test: 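Find genes required for NF-kappaB p65 moving into the nucleus after LPS in mouse macrophages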 (primary screen)
Cells: mouse RAW264.7 G9 macrophage reporter cells (GFP-p65, Tnf promoter-mCherry)
Reagents: siRNA pool against mouse genes, 100 nM
Timing: 2 days siRNA transfection, then 40 min LPS before fixation
Conditions: LPS (Salmonella minnesota R595) at 10 ng/ml
Read-out: 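Microscopy ratio of nuclear to perinuclear-ring GFP-p65 signal, scaled to the plate median; gene score is the average of two replicate robust z-scores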
Direction: p65 translocation robust z-score: higher = more nuclear NF-kappaB p65 after LPS than the plate median; nuclear/cytoplasmic p65 ratio: higher = more nuclear NF-kappaB p65
Active means: 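Called active when z exceeds 3.3 or falls under -1.56 (median of Tlr4 controls), giving activity score of at least 50; no calls for control wells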
Calls: active = hit (p65 shift raised or lowered); inactive = no clear change
The deposit covers about 17,000 reagents; below is a part drawn at random. In the full data, 762 (4.5%) were called active. 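Active calls include both raised and lowered p65 entry, mostly lowered; wells with fewer than 50 cells lack a z-score.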 The raw values are shown without normalisation.

gene knocked down	p65 translocation robust z-score	nuclear/cytoplasmic p65 ratio, rep 1	nuclear/cytoplasmic p65 ratio, rep 2	low cell count flag	call
Ift20	0.29	1.49	1.57	enough cells to score	inactive
Fan1	-0.87	1.22	1.38	enough cells to score	inactive
Scyl2	0.02	1.72	1.37	enough cells to score	inactive
Tuft1	2.47	1.65	1.56	enough cells to score	inactive
Ints12	0.57	1.75	1.4	enough cells to score	inactive
Hcst	-2.96	0.907	1.13	enough cells to score	active
Tbc1d8b	-0.11	1.41	1.53	enough cells to score	inactive
Or14j1	0.99	1.76	1.55	enough cells to score	inactive
Snupn	0.88	1.64	1.64	enough cells to score	inactive
Tlk1	2.28	1.81	1.67	enough cells to score	inactive
Gas1	0.14	1.38	1.45	enough cells to score	inactive
Zfp239		1.34	1.01	fewer than 50 cells per well; well left out of scoring	inactive
Fig4	1.3	1.89	1.73	enough cells to score	inactive
Llgl2	1.03	1.8	1.76	enough cells to score	inactive
Mvk	-1.49	1.35	1.19	enough cells to score	inactive
Rtkn	-0.51	1.3	1.2	enough cells to score	inactive
Ndufaf3		1.3	1.13	fewer than 50 cells per well; well left out of scoring	inactive
Dmac2		1.21	1.25	fewer than 50 cells per well; well left out of scoring	inactive
Chga	-0.45	1.4	1.32	enough cells to score	inactive
Or9m1b	-0.16	1.68	1.51	enough cells to score	inactive
Doc2a	1.78	1.72	1.58	enough cells to score	inactive
Slc35d1		1.89	1.38	fewer than 50 cells per well; well left out of scoring	inactive
Prl8a9	1.6	1.61	1.38	enough cells to score	inactive
Mpzl2	-0.12	1.56	1.41	enough cells to score	inactive
Mex3b		1.22	1.12	fewer than 50 cells per well; well left out of scoring	inactive
Tifa	0.66	1.47	1.25	enough cells to score	inactive
Taf1b	0.75	1.58	1.66	enough cells to score	inactive
Or4k42	0.6	1.72	1.5	enough cells to score	inactive
Atl2	-0.72	1.41	1.49	enough cells to score	inactive
Fzr1	-0.42	1.43	1.34	enough cells to score	inactive
Xpo6	-0.15	1.4	1.22	enough cells to score	inactive
Spmip4		1.36	1.28	fewer than 50 cells per well; well left out of scoring	inactive
Lpin3		1.64	1	fewer than 50 cells per well; well left out of scoring	inactive
Cacna1d	-0.37	1.55	1.57	enough cells to score	inactive

In a second layout: entries from further up.
{"gene knocked down":"Tuft1","p65 translocation robust z-score":2.47,"nuclear/cytoplasmic p65 ratio, rep 1":1.65,"nuclear/cytoplasmic p65 ratio, rep 2":1.56,"low cell count flag":"enough cells to score","call":"inactive"}
{"gene knocked down":"Ints12","p65 translocation robust z-score":0.57,"nuclear/cytoplasmic p65 ratio, rep 1":1.75,"nuclear/cytoplasmic p65 ratio, rep 2":1.4,"low cell count flag":"enough cells to score","call":"inactive"}
{"gene knocked down":"Hcst","p65 translocation robust z-score":-2.96,"nuclear/cytoplasmic p65 ratio, rep 1":0.907,"nuclear/cytoplasmic p65 ratio, rep 2":1.13,"low cell count flag":"enough cells to score","call":"active"}
{"gene knocked down":"Tbc1d8b","p65 translocation robust z-score":-0.11,"nuclear/cytoplasmic p65 ratio, rep 1":1.41,"nuclear/cytoplasmic p65 ratio, rep 2":1.53,"low cell count flag":"enough cells to score","call":"inactive"}
{"gene knocked down":"Or14j1","p65 translocation robust z-score":0.99,"nuclear/cytoplasmic p65 ratio, rep 1":1.76,"nuclear/cytoplasmic p65 ratio, rep 2":1.55,"low cell count flag":"enough cells to score","call":"inactive"}
{"gene knocked down":"Snupn","p65 translocation robust z-score":0.88,"nuclear/cytoplasmic p65 ratio, rep 1":1.64,"nuclear/cytoplasmic p65 ratio, rep 2":1.64,"low cell count flag":"enough cells to score","call":"inactive"}
{"gene knocked down":"Tlk1","p65 translocation robust z-score":2.28,"nuclear/cytoplasmic p65 ratio, rep 1":1.81,"nuclear/cytoplasmic p65 ratio, rep 2":1.67,"low cell count flag":"enough cells to score","call":"inactive"}
{"gene knocked down":"Gas1","p65 translocation robust z-score":0.14,"nuclear/cytoplasmic p65 ratio, rep 1":1.38,"nuclear/cytoplasmic p65 ratio, rep 2":1.45,"low cell count flag":"enough cells to score","call":"inactive"}
{"gene knocked down":"Zfp239","nuclear/cytoplasmic p65 ratio, rep 1":1.34,"nuclear/cytoplasmic p65 ratio, rep 2":1.01,"low cell count flag":"fewer than 50 cells per well; well left out of scoring","call":"inactive"}
{"gene knocked down":"Fig4","p65 translocation robust z-score":1.3,"nuclear/cytoplasmic p65 ratio, rep 1":1.89,"nuclear/cytoplasmic p65 ratio, rep 2":1.73,"low cell count flag":"enough cells to score","call":"inactive"}
{"gene knocked down":"Llgl2","p65 translocation robust z-score":1.03,"nuclear/cytoplasmic p65 ratio, rep 1":1.8,"nuclear/cytoplasmic p65 ratio, rep 2":1.76,"low cell count flag":"enough cells to score","call":"inactive"}
{"gene knocked down":"Mvk","p65 translocation robust z-score":-1.49,"nuclear/cytoplasmic p65 ratio, rep 1":1.35,"nuclear/cytoplasmic p65 ratio, rep 2":1.19,"low cell count flag":"enough cells to score","call":"inactive"}
{"gene knocked down":"Rtkn","p65 translocation robust z-score":-0.51,"nuclear/cytoplasmic p65 ratio, rep 1":1.3,"nuclear/cytoplasmic p65 ratio, rep 2":1.2,"low cell count flag":"enough cells to score","call":"inactive"}

More results follow:
gene knocked down	p65 translocation robust z-score	nuclear/cytoplasmic p65 ratio, rep 1	nuclear/cytoplasmic p65 ratio, rep 2	low cell count flag	call
Or1j18	1.71	1.8	1.71	enough cells to score	inactive
Top2b	0.5	1.57	1.61	enough cells to score	inactive
Ccdc7b	0.88	1.45	1.53	enough cells to score	inactive
Gpat3	0.85	1.37	1.4	enough cells to score	inactive
Psip1	-0.67	1.3	1.13	enough cells to score	inactive
Or5d20	-2.81	1.39	1.13	enough cells to score	active
Ddost	1.35	1.43	1.77	enough cells to score	inactive
Perm1		1.17	1.15	fewer than 50 cells per well; well left out of scoring	inactive
Nrdc	-0.04	1.68	1.55	enough cells to score	inactive
V1rd19	0.71	1.47	1.31	enough cells to score	inactive
Med29		1.71	1.02	fewer than 50 cells per well; well left out of scoring	inactive
Zfp87	1.12	1.17	1.38	enough cells to score	inactive
Mrpl45	1.23	2	1.76	enough cells to score	inactive
Slc4a1ap	-1.33	1.15	1.51	enough cells to score	inactive
Thg1l	-0.66	1.46	1.44	enough cells to score	inactive
Pde8b	-0.41	1.57	1.54	enough cells to score	inactive
Il22ra1	0.44	1.55	1.43	enough cells to score	inactive
Elmo3	-0.57	1.3	1.3	enough cells to score	inactive
E030024N20Rik	-0.75	1.4	1.24	enough cells to score	inactive
Wdr6	-0.41	1.52	1.48	enough cells to score	inactive
Zc3h7a	-0.24	1.4	1.2	enough cells to score	inactive
4921522P10Rik		0	1.29	fewer than 50 cells per well; well left out of scoring	inactive
Wdr27	-0.07	1.49	1.44	enough cells to score	inactive
Rab11fip4	-0.15	1.42	1.51	enough cells to score	inactive
Dhrs9	-0.28	1.57	1.46	enough cells to score	inactive
Immt	2.51	1.89	1.78	enough cells to score	inactive
Zfp607b	0	1.35	1.52	enough cells to score	inactive
Snrpn	0.24	1.53	1.64	enough cells to score	inactive
Txnrd1	-0.03	1.53	1.31	enough cells to score	inactive
Sesn2		1.37	1.36	fewer than 50 cells per well; well left out of scoring	inactive
Ric1	2.25	1.75	1.82	enough cells to score	inactive
St7l	-0.87	1.47	1.38	enough cells to score	inactive
Polh	0.42	1.47	1.54	enough cells to score	inactive
Or8g54	0.59	1.4	1.31	enough cells to score	inactive
Ppif	-0.58	1.24	1.21	enough cells to score	inactive
1700025G04Rik	-0.02	1.45	1.35	enough cells to score	inactive
Col6a2	-0.51	1.44	1.27	enough cells to score	inactive
Ccpg1	1.61	1.76	1.51	enough cells to score	inactive
Znf41-ps		1.44	1.62	fewer than 50 cells per well; well left out of scoring	inactive
Coq8b	-0.69	1.63	1.25	enough cells to score	inactive
Ppil3	-0.67	1.27	1.16	enough cells to score	inactive
